# Biological target: Amyloid beta 1-40, natural L-enantiomer (UniProt P05067)
# The chains behind the UniProt entries cited, without tags or fusion partners. Where a name states a change or a piece, a line headed by the entry shows the natural chain unless it says otherwise.
# UniProt P05067: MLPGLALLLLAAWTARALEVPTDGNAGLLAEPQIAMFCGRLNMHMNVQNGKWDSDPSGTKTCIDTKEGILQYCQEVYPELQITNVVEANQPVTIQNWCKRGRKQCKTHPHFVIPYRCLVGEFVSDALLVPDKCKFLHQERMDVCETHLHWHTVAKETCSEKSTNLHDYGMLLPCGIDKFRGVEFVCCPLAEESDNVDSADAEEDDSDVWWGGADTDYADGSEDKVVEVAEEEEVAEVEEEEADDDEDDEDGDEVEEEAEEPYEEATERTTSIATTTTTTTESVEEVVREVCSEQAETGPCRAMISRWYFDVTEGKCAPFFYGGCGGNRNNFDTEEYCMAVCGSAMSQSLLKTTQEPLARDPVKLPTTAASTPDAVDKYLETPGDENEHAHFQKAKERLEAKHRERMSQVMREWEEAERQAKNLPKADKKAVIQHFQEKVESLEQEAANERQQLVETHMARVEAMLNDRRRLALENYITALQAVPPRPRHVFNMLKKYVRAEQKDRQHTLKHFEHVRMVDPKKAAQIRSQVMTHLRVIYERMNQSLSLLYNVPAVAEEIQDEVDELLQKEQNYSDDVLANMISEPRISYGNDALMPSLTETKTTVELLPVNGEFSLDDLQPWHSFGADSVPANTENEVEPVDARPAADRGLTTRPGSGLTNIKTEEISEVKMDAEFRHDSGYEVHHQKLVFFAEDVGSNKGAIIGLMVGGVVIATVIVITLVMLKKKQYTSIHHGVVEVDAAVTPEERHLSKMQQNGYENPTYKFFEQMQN
# Test: inhibition of the protein
# Details: severely inhibits further fibril formation; peptide enantiomer in this assay not explicit; 50 mM MOPS pH 7.4, 50 mM NaCl, 1 mM MgCl2
sequence,measurement,value
GGGAGACAAGACUAGACGCUCAAGGGGUGCUAAGCAUUUGGCAUCCGUUUUGUGAACUGCUCGAUGUUUAUUCUUCGACAUGAGACUCACAACAGUUCCCUUUAGUGAGGGUUAAUU [anti-Abeta T3 aptamer (T3.2)],functional effect of the aptamer,active
